Assay results: publication doi:10.1101/189605
Results are given in words; binding and its absence hold for the method and conditions named. For some assays here: In cells and extracts the contact can be indirect. Some entries that bind do so weakly or less than the wild type.

Amino acid sequences for entries named in this document (tags omitted).
UniProt P18850: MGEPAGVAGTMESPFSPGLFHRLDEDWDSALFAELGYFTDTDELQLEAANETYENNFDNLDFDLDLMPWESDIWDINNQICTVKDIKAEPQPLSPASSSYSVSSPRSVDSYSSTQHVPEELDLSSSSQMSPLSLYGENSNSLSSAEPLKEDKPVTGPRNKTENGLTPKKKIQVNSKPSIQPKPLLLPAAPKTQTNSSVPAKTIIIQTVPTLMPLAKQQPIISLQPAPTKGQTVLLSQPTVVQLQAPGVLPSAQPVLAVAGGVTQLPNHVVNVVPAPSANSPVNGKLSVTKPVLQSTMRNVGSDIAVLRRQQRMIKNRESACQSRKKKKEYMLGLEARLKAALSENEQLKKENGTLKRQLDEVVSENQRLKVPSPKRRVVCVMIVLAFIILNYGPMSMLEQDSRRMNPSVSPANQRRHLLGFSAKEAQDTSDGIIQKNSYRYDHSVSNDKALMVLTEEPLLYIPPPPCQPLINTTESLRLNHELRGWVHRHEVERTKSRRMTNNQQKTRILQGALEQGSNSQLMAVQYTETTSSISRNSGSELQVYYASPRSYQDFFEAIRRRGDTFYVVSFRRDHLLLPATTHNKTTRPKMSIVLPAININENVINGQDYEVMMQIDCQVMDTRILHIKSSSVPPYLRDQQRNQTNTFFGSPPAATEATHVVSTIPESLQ

Columns and labels:
[1] = target: ATF6α (endogenous, uncleaved) (human (endogenous in HEK293)) (UniProt P18850); assay: cross-linking
[2] = target: ATF6α (endogenous, uncleaved) (human (endogenous in HEK293)) (UniProt P18850); assay: native gel or EMSA

ATF6α (endogenous, uncleaved) (from UniProt P18850 1-670)
binding [1]: binds | binding [2]: binds
